Test results reported in PubChem BioAssay AID651706 (NMMLSC, 2012).
The list shows a part of the results. Shown are side measurements of this screen, not its main read-out; they come without a call. The list favours compounds with an active or inconclusive main result.

test: differentiation of ER-HoxA9 arrested myeloid cells – cell-based, GFP/Mac1 flow cytometry, cherry pick 01, confirmation (AID 651706); conditions: ER-HoxA9 myeloid progenitors, measured here: percent double positive cells, stronger effect = higher value;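 note: share of live cells carrying both lysozyme GFP and MAC1 staining after four days; test concentration not given here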

Question: With `Cc1cc(NC(=O)COC(=O)c2c(C)nn(Cc3ccccc3)c2Cl)no1` as the compound, how does the double positive cells read?
Answer: 12.5%

Question: Which double positive cells does the source give for `COC(=O)C1=C(c2cc3ccccc3s2)C[C@@H]2CC[C@H]1N2C(=O)NC1CCCCC1` here?
Answer: 5.8%
